These are yes or no findings as the source states them, for the method shown. Some binding calls cover weakened binding; strength is not graded here.
Target: LFA1 (integrin αLβ2) (mouse (endogenous in neutrophils)) (UniProt P24063+P11835)
Test: flow cytometry on cells; murine neutrophils (WT or TRPC6-/-) from overnight cultures, incubated with CD11b antibody (clone M1/70, 10 ug/ml) to avoid Mac-1 binding; ICAM-1/Fc 20 ug/ml with allophycocyanin-conjugated IgG (Fc specific); unstimulated or stimulated with CXCL1 (0.1 ug/ml, 3 min); only the binder purified

Sequences of proteins named here, by UniProt entry; tags and fusion partners are left off. A change or cut given only in a name is not applied to a line headed by its entry. Residues count along the entry.
UniProt P24063: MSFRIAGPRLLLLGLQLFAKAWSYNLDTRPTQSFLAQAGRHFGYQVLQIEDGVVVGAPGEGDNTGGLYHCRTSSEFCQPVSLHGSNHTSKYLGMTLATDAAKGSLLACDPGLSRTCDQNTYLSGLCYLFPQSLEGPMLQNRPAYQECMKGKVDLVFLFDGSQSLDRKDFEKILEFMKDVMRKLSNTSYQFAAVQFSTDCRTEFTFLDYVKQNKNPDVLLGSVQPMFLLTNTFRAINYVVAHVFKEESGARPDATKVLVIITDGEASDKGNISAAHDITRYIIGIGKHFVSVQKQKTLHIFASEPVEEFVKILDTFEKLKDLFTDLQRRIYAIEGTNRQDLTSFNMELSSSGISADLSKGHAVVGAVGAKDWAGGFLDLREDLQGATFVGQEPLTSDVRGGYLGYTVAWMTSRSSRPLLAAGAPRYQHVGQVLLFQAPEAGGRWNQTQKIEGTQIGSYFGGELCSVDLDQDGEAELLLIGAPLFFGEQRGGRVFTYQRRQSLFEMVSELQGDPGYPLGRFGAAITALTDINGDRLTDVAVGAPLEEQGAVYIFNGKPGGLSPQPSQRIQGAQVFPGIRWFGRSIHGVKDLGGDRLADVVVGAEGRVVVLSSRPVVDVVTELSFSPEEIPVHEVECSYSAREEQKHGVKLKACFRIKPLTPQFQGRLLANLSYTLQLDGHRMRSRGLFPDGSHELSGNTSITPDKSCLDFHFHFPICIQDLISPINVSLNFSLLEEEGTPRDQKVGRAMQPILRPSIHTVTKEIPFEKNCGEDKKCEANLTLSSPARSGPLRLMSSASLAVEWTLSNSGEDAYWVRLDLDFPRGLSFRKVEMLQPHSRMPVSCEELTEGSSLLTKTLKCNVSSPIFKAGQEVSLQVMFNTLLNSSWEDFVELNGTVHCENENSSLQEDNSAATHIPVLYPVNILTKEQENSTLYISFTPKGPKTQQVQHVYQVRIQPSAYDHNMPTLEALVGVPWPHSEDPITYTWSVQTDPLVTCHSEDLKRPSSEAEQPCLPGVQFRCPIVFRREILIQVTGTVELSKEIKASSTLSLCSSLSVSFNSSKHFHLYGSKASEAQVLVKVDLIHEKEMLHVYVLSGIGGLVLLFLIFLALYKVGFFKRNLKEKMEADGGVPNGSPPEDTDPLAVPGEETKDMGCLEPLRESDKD
UniProt P11835: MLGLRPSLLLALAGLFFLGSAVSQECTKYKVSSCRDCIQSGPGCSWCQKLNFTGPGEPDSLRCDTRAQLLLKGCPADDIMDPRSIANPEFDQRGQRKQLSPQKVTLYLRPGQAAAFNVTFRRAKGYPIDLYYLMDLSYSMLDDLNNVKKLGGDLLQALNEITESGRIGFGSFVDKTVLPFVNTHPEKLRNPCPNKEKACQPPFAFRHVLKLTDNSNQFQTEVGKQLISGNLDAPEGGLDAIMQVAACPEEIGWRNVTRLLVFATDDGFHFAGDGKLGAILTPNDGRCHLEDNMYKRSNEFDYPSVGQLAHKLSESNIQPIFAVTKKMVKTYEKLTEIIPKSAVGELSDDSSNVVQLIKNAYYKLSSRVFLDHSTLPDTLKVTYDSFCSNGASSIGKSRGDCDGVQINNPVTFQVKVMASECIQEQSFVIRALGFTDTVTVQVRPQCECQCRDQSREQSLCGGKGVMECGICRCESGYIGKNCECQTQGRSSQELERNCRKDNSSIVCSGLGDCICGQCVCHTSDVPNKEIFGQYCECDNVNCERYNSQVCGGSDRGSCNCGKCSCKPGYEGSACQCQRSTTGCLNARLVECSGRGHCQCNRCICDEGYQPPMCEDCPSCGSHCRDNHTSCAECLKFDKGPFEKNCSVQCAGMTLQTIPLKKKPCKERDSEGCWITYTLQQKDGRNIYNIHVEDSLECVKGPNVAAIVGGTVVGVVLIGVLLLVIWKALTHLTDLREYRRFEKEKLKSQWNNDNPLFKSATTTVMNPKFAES
UniProt P13597, residues 28-485: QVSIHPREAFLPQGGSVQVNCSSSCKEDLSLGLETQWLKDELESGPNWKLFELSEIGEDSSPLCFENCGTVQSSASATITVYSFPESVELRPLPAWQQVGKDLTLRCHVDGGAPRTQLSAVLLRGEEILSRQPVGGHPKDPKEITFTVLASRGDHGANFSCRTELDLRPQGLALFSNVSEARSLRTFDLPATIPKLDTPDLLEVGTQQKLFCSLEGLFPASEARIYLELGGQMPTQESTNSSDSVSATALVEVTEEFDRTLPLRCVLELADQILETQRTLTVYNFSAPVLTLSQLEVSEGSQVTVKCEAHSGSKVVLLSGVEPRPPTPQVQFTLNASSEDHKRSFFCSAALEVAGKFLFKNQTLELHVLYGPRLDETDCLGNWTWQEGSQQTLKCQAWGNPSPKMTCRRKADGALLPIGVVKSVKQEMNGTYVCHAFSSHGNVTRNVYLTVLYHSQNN

binding: binds
Substance: ICAM-1/Fc (from UniProt P13597 28-485) (Fc fusion)

Source: article PMC7080674
